Measured values published in patent publication US20030180784A1.
Results are given in words; binding and its absence hold for the method and conditions named. Some results given as binding are weak or reduced against the parent protein; the word gives no strength.

Protein sequences, listed by entry. Tags and fused reporters are not part of them. Lines headed by an entry give the natural chain unless they say otherwise; changes in a name come on top. Residues count along the entry.
UniProt Q04721, residues 26-2471: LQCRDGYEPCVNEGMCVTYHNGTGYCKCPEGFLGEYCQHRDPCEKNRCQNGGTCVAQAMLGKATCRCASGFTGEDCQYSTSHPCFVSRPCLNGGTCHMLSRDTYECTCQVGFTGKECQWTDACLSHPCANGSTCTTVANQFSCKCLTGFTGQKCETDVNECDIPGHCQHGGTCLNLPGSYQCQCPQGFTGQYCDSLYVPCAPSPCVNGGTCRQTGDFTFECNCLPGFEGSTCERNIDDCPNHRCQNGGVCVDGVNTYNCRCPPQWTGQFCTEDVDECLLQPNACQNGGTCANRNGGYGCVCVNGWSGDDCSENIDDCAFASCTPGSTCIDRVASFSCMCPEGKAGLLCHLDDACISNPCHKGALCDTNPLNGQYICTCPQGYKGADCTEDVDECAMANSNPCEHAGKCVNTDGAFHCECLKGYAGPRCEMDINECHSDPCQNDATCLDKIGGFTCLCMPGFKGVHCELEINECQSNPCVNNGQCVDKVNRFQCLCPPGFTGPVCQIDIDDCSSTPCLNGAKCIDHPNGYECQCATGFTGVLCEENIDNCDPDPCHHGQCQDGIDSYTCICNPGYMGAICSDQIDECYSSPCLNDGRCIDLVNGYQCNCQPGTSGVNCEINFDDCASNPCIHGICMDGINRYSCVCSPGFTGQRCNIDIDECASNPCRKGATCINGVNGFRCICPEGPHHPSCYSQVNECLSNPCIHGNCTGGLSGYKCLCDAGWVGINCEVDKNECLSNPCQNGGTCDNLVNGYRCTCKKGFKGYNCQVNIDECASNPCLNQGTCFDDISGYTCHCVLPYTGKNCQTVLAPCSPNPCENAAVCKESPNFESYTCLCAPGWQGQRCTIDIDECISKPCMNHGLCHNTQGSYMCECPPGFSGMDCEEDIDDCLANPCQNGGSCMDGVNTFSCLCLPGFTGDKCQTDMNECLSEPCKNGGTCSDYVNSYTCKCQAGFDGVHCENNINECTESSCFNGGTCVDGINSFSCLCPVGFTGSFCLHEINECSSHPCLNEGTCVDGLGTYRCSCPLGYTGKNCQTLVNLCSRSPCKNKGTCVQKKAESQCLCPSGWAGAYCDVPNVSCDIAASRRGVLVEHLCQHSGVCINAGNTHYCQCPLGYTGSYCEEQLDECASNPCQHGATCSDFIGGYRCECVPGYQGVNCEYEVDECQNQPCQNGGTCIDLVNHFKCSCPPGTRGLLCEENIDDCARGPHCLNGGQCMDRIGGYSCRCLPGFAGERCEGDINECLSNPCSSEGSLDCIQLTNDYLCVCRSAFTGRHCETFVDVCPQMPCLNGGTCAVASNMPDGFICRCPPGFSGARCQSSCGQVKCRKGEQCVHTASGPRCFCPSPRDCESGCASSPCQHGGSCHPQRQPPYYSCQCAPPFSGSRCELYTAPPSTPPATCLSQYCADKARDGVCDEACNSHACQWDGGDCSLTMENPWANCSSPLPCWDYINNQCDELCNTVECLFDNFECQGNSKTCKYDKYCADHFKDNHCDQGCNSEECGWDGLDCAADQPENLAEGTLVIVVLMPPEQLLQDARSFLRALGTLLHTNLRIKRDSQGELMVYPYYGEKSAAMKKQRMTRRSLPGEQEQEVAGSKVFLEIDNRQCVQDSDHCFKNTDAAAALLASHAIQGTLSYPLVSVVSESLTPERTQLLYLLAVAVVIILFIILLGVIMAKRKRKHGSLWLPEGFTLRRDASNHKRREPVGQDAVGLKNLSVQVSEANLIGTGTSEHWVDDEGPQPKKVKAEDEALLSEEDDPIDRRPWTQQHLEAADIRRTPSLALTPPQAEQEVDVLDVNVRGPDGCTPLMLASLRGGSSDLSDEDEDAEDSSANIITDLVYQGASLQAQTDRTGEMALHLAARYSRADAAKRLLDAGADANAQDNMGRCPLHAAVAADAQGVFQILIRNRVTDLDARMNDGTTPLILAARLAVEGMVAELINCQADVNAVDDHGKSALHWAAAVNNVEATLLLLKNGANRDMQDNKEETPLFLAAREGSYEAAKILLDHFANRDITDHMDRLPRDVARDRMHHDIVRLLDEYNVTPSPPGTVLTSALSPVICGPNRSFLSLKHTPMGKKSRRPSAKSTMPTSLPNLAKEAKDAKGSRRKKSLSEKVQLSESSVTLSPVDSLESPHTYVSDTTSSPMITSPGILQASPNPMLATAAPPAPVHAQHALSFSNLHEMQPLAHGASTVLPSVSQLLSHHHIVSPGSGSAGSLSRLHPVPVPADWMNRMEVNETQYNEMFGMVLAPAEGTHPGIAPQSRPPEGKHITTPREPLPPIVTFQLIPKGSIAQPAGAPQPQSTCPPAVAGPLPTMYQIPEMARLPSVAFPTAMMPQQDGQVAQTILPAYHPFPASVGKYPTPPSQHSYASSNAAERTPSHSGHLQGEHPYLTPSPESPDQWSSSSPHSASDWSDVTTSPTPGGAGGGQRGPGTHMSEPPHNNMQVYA
UniProt Q9NR61: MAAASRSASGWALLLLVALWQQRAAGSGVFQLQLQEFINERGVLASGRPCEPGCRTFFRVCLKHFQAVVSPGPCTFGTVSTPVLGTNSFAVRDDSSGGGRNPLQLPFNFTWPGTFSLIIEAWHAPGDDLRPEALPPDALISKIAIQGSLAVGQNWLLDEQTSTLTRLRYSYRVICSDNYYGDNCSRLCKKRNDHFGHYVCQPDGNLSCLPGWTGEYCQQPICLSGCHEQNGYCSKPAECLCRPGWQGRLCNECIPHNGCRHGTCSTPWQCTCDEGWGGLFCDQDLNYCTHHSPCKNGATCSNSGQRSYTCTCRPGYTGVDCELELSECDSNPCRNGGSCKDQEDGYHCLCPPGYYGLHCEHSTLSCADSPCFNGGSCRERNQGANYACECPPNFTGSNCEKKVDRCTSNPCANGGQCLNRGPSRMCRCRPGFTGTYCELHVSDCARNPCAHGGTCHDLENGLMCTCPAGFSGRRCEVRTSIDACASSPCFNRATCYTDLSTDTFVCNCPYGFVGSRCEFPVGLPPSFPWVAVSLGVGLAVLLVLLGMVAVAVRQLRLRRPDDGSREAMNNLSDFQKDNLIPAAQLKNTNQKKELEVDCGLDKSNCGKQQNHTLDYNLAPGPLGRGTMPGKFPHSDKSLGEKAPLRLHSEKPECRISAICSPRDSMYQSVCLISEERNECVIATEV

Experiments:
[1] = target: human Notch2 (full-length, expressed on transiently transfected 293T cells) (human) (UniProt Q04721); assay: hDelta3-Fc at 10 µg/ml on Notch2-transfected 293T cells, FITC anti-human IgG, fluorescence microscopy; calcium-dependent, abolished by 5 mM EDTA
[2] = target: human Notch2 (full-length, expressed on transiently transfected 293T cells) (human) (UniProt Q04721); assay: summary sentence of example 5.6 (hDelta3-Fc staining of Notch-transfected 293T cells)

binding [1]: binds
binding [2]: binds
Substance: hDelta3-Fc (extracellular domain of hDelta3 fused in frame to the Fc portion of immunoglobulin G) (from UniProt Q9NR61 18-529) (Fc fusion)
